Laboratory results reported in patent US20220087275A1, “MAGNESIUM ION AS ANTIBACTERIAL AGENT” (THE STATE OF ISRAEL, MINISTRY OF AGRICULTURE & RURAL …, priority 2016, published 2022).
Like-named read-outs stand apart in the source and are kept apart here.

Protocol: In order to examine milk clotting parameters, milk samples obtained from the dairy farm of the Agricultural Research Organization (ARO; Bet Dagan, Israel). […] Milk-clotting parameters such as rennet clotting time (RCT; min) and curd firmness (CF; V) after 90 min (CF-90) which are measured with an Optigraph instrument (Ysebaert, Frepillon, France) as described by Leitner et al. (2011). Results are presented in a graph. The point in which the curve is split into two curves, represents the rennet Clotting Time (RCT), which is the time between the addition of the clotting enzyme and the beginning of the coagulation process. The curd firmness is derived from the distance of the two curves in the graph 30 min after the addition of the clotting enzyme, or 90 minutes after the addition of the clotting enzyme.

Question: With `[Cl-].[Cl-].[Mg+2]` [MgCl2, magnesium chloride] as the compound, how does the “Curd firmness (volts), Average” value (3 mM Mg) read?
Answer: The value was 11.88 volts.

Question: What about the “RCT (minutes), Average” value (3 mM Mg) of the same compound?
Answer: The value was 12.12 min.

Question: What about the “Curd firmness (volts), Average” value (5 mM Mg) of the same compound?
Answer: Its value is 13.56 volts.

Question: What about the “RCT (minutes), Average” value (5 mM Mg) of the same compound?
Answer: The value was 9.42 min.
